According to publication doi:10.1101/2020.06.03.131094:
Residue numbers refer to the chain shown, from its start. Results are given in words; binding and its absence hold for the method and conditions named. For some assays here: Binding seen in cells or lysates may run through a third protein. Some binding calls cover weakened binding; strength is not graded here. For some assays here: Where a sequence is shown, tags or fusion partners need not be part of it.

Experiments:
[1] = target: T1, ATL31-FLAG (Arabidopsis thaliana) (UniProt Q8LGA5); experiment: co-IP
T1 sequence: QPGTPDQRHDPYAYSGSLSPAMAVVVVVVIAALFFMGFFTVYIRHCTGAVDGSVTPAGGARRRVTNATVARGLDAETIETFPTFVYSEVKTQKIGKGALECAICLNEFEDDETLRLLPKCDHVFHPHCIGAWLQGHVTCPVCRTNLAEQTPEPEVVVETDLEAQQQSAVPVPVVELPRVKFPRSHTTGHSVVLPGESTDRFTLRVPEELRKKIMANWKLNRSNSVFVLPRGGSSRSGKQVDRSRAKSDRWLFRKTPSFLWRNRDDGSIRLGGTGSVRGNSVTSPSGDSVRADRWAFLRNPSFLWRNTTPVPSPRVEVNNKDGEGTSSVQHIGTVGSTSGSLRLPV

[2] = target: T2, ATL31^C143S-FLAG (Arabidopsis thaliana) (UniProt Q8LGA5); experiment: co-IP
T2 sequence: T1 sequence with C120S

[3] = target: T3, ATL31-Cub (Arabidopsis thaliana) (UniProt Q8LGA5); experiment: two-hybrid
T3 sequence: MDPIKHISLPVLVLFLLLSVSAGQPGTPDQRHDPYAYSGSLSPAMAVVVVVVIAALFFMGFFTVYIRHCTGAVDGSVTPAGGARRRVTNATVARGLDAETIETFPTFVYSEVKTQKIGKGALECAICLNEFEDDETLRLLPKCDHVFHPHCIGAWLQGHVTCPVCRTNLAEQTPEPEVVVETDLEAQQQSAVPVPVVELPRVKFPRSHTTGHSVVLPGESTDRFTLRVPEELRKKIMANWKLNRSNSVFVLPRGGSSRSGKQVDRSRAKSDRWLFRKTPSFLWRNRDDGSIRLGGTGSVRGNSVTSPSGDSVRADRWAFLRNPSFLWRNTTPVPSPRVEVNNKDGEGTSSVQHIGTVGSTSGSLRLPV

[4] = target: T4, ATL31^C143S-Cub (Arabidopsis thaliana) (UniProt Q8LGA5); experiment: two-hybrid
T4 sequence: T3 sequence with C143S

[5] = target: T5, ATL31-GFP (Arabidopsis thaliana) (UniProt Q8LGA5); experiment: co-IP
T5 sequence: T1 sequence

B1: GFP-SYP61 (protein, UniProt Q946Y7 1-245)
chain: MSSAQDPFYIVKEEIQDSIDKLQSTFHKWERISPDMGDQAHVAKELVATCGSIEWQVDELEKAITVAAKDPSWYGIDEAELEKRRRWTSNARTQVRNVKSGVLAGKVSSGAGHASEVRRELMRMPNSGEASRYDQYGGRDDDGFVQSESDRQMLLIKQQDEELDELSKSVQRIGGVGLTIHDELVAQERIIDELDTEMDSTKNRLEFVQKKVGMVMKKAGAKGQMMMICFLLVLFIILFVLVFLT
- binding [1]: binds
- binding [2]: binds

B2: Nub-SYP61 (protein, UniProt Q946Y7 1-245)
chain: B1 chain
- binding [3]: binds
- binding [4]: binds

B3: endogenous SYP61 (protein, UniProt Q946Y7 1-245)
chain: B1 chain
- binding [5]: binds
